Reference: PubChem BioAssay AID504774 (Drosophila RNAi Screening Center, 2011)
Assay: 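Genes required for cells to withstand methyl methanesulphonate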 (primary screen). System: Drosophila Kc167 cells. Reagents: long dsRNA against Drosophila genes, about 0.25 µg dsRNA per well. Duration: about 6 days: 3 days knock-down, then 3 days with or without MMS. Treatment: methyl methanesulphonate 0.004% (w/v) for 3 days after knock-down. Measurement: 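ATP-dependent luminescence as a measure of live cells in MMS-exposed wells, quantile normalised within each plate, with replicate values also given as a mean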. Reading the numbers: mean viability with MMS: higher = more surviving cells after MMS.
The screen tested about 23,000 reagents; below is an unselected part of those with a known target gene and a result. 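Values are quantile-normalised luminescence on an arbitrary scale; higher means more cells surviving MMS.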 Further read-outs or replicates are left out here.

L (Lobe) [SID104186458] → mean viability with MMS: 3.43e6
L (Lobe) [SID104186460] → mean viability with MMS: 3.53e6
msps (mini spindles) [SID104196796] → mean viability with MMS: 3.49e6
CG33627 [SID104185135] → mean viability with MMS: 3.73e6
CG1552 [SID104199457] → mean viability with MMS: 3.61e6
CG10038 [SID104193970] → mean viability with MMS: 3.83e6
CG5254 [SID104198403] → mean viability with MMS: 3.56e6
TBC1D5 (TBC1 domain family member 5) [SID104196213] → mean viability with MMS: 3.44e6
hang (hangover) [SID104199693] → mean viability with MMS: 3.27e6
hang (hangover) [SID104199694] → mean viability with MMS: 2.84e6
hang (hangover) [SID104202573] → mean viability with MMS: 3.77e6
seq (sequoia) [SID104186655] → mean viability with MMS: 3.27e6
CG9525 [SID104183041] → mean viability with MMS: 3.50e6
ab (abrupt) [SID104183270] → mean viability with MMS: 2.92e6
ab (abrupt) [SID104202536] → mean viability with MMS: 3.30e6
CG32148 [SID104189130] → mean viability with MMS: 3.58e6
CG3918 [SID104198123] → mean viability with MMS: 2.91e6
CG3918 [SID104202516] → mean viability with MMS: 3.69e6
HDAC1 (Histone deacetylase 1) [SID104188488] → mean viability with MMS: 3.40e6
Prp3 (Precursor RNA processing 3) [SID104190704] → mean viability with MMS: 3.16e6
CG15286 [SID104181699] → mean viability with MMS: 3.60e6
trus (toys are us) [SID104195564] → mean viability with MMS: 3.46e6
Lamtor4 (Late endosomal/lysosomal adaptor, MAPK and MTOR activator 4) [SID104188228] → mean viability with MMS: 3.53e6
sad (shadow) [SID104196422] → mean viability with MMS: 3.51e6
Lapsyn (Leucine-rich repeat activity-regulated protein at synapses) [SID104184041] → mean viability with MMS: 3.89e6
CG5217 [SID104195532] → mean viability with MMS: 3.54e6
CG11882 [SID104194217] → mean viability with MMS: 3.50e6
Vm26Ac (Vitelline membrane 26Aac) [SID104182121] → mean viability with MMS: 3.58e6
CG8814 [SID104180499] → mean viability with MMS: 3.72e6
hb (hunchback) [SID104196755] → mean viability with MMS: 3.42e6
Fatp (retired record) [SID104182846] → mean viability with MMS: 3.45e6
CG42580 [SID104200189] → mean viability with MMS: 3.51e6
sty (sprouty) [SID104188529] → mean viability with MMS: 3.63e6
sty (sprouty) [SID104202351] → mean viability with MMS: 3.42e6
tsl (torso-like) [SID104196882] → mean viability with MMS: 3.62e6
CG7560 [SID104190671] → mean viability with MMS: 3.60e6
CG8620 [SID104190812] → mean viability with MMS: 3.94e6
Acp29AB (Accessory gland protein 29AB) [SID104181649] → mean viability with MMS: 3.43e6
CG15209 [SID104199447] → mean viability with MMS: 3.60e6
CG3253 [SID104184142] → mean viability with MMS: 3.42e6
CG4194 [SID104198312] → mean viability with MMS: 3.61e6
Naglu (N-acetyl-alpha-glucosaminidase) [SID104182059] → mean viability with MMS: 3.41e6
betaNACtes3 (Nascent-associated complex beta-subunit-like, testis 3) [SID104199975] → mean viability with MMS: 3.75e6
Abi (Abelson interacting protein) [SID104193891] → mean viability with MMS: 3.66e6
LPCAT (Lysophosphatidylcholine acyltransferase) [SID104197949] → mean viability with MMS: 3.95e6
LPCAT (Lysophosphatidylcholine acyltransferase) [SID104198049] → mean viability with MMS: 3.58e6
